Laboratory results taken from US20250340657A1 (CANTARGIA, published 2025).
Substitutions are numbered along the chain they refer to. No constants are given. Whether binding was seen depends on the method and setting. Some binding calls cover weakened binding; strength is not graded here.

Sequences of proteins named here, by UniProt entry; tags and fusion partners are left off. A change or cut given only in a name is not applied to a line headed by its entry. Residues count along the entry.
UniProt Q9NPH3: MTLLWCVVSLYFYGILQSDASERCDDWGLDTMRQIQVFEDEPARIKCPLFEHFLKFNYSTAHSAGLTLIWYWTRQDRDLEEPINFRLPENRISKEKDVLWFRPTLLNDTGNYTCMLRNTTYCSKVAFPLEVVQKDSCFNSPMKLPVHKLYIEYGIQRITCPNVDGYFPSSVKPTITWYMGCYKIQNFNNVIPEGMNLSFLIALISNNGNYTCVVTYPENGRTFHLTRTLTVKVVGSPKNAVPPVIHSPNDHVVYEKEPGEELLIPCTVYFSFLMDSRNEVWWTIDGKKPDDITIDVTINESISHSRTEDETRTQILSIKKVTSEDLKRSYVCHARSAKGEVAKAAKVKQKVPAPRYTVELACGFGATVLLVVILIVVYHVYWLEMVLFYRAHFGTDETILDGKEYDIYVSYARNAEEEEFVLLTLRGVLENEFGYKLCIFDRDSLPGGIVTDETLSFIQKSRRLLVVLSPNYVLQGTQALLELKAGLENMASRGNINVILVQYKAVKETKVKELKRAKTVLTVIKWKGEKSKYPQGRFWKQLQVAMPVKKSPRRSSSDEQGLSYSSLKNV
human IL1RAP on cells: residues 21-570 of Q9NPH3
human IL1RAP (analyte of the Biacore study): residues 21-367 of Q9NPH3

Legend:
[1] = target: human IL1RAP on cells (human) (UniProt Q9NPH3); experiment: flow cytometry on BV173 cells (FIG. 3)
[2] = target: human IL1RAP on cells (human) (UniProt Q9NPH3); experiment: flow cytometry on BV173 cells, 1 µg/mL antibody, secondary anti-hIgG-PE, MFI
[3] = target: human IL1RAP on cells (human) (UniProt Q9NPH3); experiment: flow cytometry on IL1RAP-expressing BV173 cells, 1 µg/mL
[4] = target: human IL1RAP on cells (human) (UniProt Q9NPH3); experiment: flow cytometry on IL1RAP-expressing BV173 cells, 1 µg/mL, anti-hIgG-PE
[5] = target: human IL1RAP (analyte of the Biacore study) (human) (UniProt Q9NPH3); experiment: SPR (Biacore T200)

Measured: binding

B1: hCAN04 Variant 6 (antibody, human IgG1, kappa, V domains shown)
VH: QVQLVQSGAEVKKPGSSVKVSCKASGYAFTSSWMNWVRQAPGQGLEWMGRIYPGDGNTHYAQKFQGRVTLTADKSTSTAYMELSSLRSEDTAVYYCGEGYLDPMDYWGQGTLVTVSS
VL: DIQMTQSPSSLSASVGDRVTITCQASQGINNYLNWYQQKPGKAPKLLIHYTSGLHAGVPSRFSGSGSGTDYTLTISSLEPEDVATYYCQQYSILPWTFGGGTKVEIKR
notes: Human IgG1za / kappa, expressed in CHOK1SV cells; also called Var6; humanized variant 6 of CAN04
not listed: [5]
binds: all other assays above

B2: hCAN04 Variant 1 (antibody, human IgG1, kappa, V domains shown)
VH: B1 VH with T30S
VL: B1 VL with Q24S, E79Q
notes: Human IgG1za / kappa, expressed in CHOK1SV cells; also called Var1; humanized variant 1 of CAN04
not listed: [5]
binds: all other assays above

B3: hCAN04 Variant 2 (antibody, human IgG1, kappa, V domains shown)
VH: B1 VH
VL: B1 VL with Q24S, E79Q
notes: Human IgG1za / kappa, expressed in CHOK1SV cells; also called Var2; humanized variant 2 of CAN04
not listed: [5]
binds: all other assays above

B4: hCAN04 Variant 3 (antibody, human IgG1, kappa, V domains shown)
VH: B1 VH with A28T, Q43K, N57Q
VL: B1 VL with Q24S, E79Q
notes: Human IgG1za / kappa, expressed in CHOK1SV cells; also called Var3; humanized variant 3 of CAN04
binds: [1] | [2] | [4]

B5: hCAN04 Variant 4 (antibody, human IgG1, kappa, V domains shown)
VH: B1 VH with A28T, Q43K, N57Q, L70I
VL: B1 VL with Q24S, E79Q
notes: Human IgG1za / kappa, expressed in CHOK1SV cells; also called Var4; humanized variant 4 of CAN04
binds: [1] | [2] | [4]

B6: hCAN04 Variant 5 (antibody, human IgG1, kappa, V domains shown)
VH: B1 VH with T30S
VL: B1 VL
notes: Human IgG1za / kappa, expressed in CHOK1SV cells; also called Var5; humanized variant 5 of CAN04
not listed: [5]
binds: all other assays above

B7: hCAN04 Variant 7 (antibody, human IgG1, kappa, V domains shown)
VH: B1 VH with A28T, Q43K, N57Q
VL: B1 VL
notes: Human IgG1za / kappa, expressed in CHOK1SV cells; also called Var7; humanized variant 7 of CAN04
binds: [1] | [2] | [4]

B8: hCAN04 Variant 8 (antibody, human IgG1, kappa, V domains shown)
VH: B1 VH with A28T, Q43K, N57Q, L70I
VL: B1 VL
notes: Human IgG1za / kappa, expressed in CHOK1SV cells; also called Var8; humanized variant 8 of CAN04
binds: [1] | [2] | [4]

B9: hCAN04 Variant 9 (antibody, human IgG1, kappa, V domains shown)
VH: B1 VH with T30S
VL: B1 VL with Y71F
notes: Human IgG1za / kappa, expressed in CHOK1SV cells; also called Var9; humanized variant 9 of CAN04
not listed: [5]
binds: all other assays above

B10: hCAN04 Variant 10 (antibody, human IgG1, kappa, V domains shown)
VH: B1 VH
VL: B1 VL with Y71F
notes: Human IgG1za / kappa, expressed in CHOK1SV cells; also called Var10; humanized variant 10 of CAN04
not listed: [5]
binds: all other assays above

B11: hCAN04 Variant 11 (antibody, human IgG1, kappa, V domains shown)
VH: B1 VH with A28T, Q43K, N57Q
VL: B1 VL with Y71F
notes: Human IgG1za / kappa, expressed in CHOK1SV cells; also called Var11; humanized variant 11 of CAN04
binds: [1] | [2] | [4]

B12: hCAN04 Variant 12 (antibody, human IgG1, kappa, V domains shown)
VH: B1 VH with A28T, Q43K, N57Q, L70I
VL: B1 VL with Y71F
notes: Human IgG1za / kappa, expressed in CHOK1SV cells; also called Var 12; humanized variant 12 of CAN04
binds: [1] | [2] | [4]

B13: CAN04 (antibody, V domains shown)
VH: QVQLQQSGPELLKPGASVKISCKASGYAFSSSWMNWVKQRPGKGLEWIGRIYPGDGNTHYSGKFKGKATLTADKSSSIAYMQLSSLTSEDSAVYFCGEGYLDPMDYWGQGTSVTVSS
VL: DIQMTQTTSSLSASLGDRVTISCSASQGINNYLNWYQQKPDGTVKLLIHYTSGLHAGVPSRFSGSGSGTDYSLTISNLEPEDVATYYCQQYSILPWTFGGGTKLEIKR
notes: Murine-derived monoclonal IgG; It was PE-conjugated on primary cells and AF488-labelled for confocal microscopy; also called exemplary antibody of the invention
binds: [5]
